# Results are given in words; binding and its absence hold for the method and conditions named. Binding seen in cells or lysates may run through a third protein. Some entries that bind do so weakly or less than the wild type.
# By UniProt entry, the sequences of proteins in these tests, tags left out. Where a name states a change or a piece, a line headed by the entry shows the natural chain unless it says otherwise. Chains listed by the source or under a name are the forms on record and can include a tag or linker.
# UniProt P31750: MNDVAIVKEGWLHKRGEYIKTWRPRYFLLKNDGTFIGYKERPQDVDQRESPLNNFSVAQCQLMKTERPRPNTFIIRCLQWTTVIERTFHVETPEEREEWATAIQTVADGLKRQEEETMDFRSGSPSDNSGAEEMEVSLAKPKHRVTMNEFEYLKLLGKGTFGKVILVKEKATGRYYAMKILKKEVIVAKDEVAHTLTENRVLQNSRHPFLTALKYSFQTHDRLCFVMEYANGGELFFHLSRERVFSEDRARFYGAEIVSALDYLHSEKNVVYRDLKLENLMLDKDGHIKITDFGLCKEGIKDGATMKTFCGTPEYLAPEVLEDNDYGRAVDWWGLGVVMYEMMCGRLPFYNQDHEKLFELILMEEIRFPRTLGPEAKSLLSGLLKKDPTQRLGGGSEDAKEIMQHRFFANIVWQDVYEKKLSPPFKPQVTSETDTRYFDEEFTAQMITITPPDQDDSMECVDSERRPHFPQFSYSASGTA
# V5-tagged full-length HIF-3α1 S524A mutant (Q9Y2N7-2, form named): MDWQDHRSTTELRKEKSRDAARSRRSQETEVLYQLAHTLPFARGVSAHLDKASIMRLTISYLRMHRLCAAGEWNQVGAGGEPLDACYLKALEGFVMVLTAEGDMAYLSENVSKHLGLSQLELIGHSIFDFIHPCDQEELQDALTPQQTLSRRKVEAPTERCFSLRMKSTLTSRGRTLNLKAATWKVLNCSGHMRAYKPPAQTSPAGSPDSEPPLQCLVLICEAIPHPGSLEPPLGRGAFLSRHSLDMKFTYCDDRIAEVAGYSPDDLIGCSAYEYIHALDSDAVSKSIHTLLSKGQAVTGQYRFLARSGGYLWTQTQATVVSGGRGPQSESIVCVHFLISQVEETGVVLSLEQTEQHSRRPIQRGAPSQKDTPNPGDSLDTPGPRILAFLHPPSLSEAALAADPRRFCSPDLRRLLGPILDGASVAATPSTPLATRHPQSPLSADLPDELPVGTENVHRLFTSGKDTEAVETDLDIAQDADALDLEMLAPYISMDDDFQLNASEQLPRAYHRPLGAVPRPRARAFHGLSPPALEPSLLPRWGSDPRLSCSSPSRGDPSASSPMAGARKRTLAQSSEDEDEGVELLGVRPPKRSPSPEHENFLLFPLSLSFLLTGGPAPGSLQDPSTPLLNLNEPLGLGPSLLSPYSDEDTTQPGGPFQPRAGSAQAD
# V5-tagged full-length HIF-3α1 wild-type (Q9Y2N7-2, form named): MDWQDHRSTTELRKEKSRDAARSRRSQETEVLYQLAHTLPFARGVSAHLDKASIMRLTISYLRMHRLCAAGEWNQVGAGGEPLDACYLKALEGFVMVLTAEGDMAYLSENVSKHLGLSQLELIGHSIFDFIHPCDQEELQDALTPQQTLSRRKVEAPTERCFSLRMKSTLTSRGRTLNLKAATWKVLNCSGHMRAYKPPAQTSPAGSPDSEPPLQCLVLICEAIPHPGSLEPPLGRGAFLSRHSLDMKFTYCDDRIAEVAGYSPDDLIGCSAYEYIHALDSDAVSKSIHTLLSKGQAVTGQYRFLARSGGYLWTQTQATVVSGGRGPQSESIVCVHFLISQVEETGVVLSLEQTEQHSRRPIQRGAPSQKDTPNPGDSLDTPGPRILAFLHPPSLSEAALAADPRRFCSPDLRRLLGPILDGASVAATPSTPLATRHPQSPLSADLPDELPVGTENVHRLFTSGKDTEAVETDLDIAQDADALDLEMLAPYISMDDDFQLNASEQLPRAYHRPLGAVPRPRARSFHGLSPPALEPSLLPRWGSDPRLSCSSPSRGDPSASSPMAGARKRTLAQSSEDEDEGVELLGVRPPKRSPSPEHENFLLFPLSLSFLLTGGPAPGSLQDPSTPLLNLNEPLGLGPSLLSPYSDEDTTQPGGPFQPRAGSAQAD
# Target: HA-tagged full-length PKB (UniProt P31750)
# Assay: co-IP; anti-HA immunoprecipitation (protein G Sepharose) from lysates of HEK 293 cells cotransfected with V5-HIF-3α1 WT or S524A and HA-PKB, MG132 for 4 h before lysis; lysis buffer 50 mM Tris/HCl pH 7.5, 150 mM NaCl, 1% Triton X-100, 2 mM EDTA, 2 mM EGTA; 4°C; IP blotted with V5 antibody
row,binding,Substance
1,no binding,V5-tagged full-length HIF-3α1 S524A mutant (from UniProt Q9Y2N7-2 1-667)
2,binds,V5-tagged full-length HIF-3α1 wild-type (from UniProt Q9Y2N7-2 1-667)

# From publication PMC10665492
